Test results as given in paper PMC9765431.

Chains of the proteins cited; added tags and fusions are not shown. Lines headed by an entry give the natural chain unless they say otherwise; changes in a name come on top.
UniProt J9W0H7: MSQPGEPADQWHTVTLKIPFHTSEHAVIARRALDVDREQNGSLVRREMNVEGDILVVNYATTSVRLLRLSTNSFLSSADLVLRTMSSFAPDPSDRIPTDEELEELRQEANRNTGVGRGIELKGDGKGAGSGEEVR
UniProt J9VIU8: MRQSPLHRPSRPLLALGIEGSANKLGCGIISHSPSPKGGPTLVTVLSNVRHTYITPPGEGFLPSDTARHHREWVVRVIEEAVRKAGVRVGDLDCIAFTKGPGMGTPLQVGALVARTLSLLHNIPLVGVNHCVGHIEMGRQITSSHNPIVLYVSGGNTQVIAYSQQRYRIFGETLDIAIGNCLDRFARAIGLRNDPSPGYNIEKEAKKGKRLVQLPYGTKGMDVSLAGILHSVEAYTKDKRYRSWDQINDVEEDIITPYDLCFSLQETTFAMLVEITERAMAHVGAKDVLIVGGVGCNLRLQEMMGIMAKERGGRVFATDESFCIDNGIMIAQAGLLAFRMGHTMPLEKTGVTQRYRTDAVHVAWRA

Target: Pcc1-4xFLAG (C. neoformans Pcc1 tagged with 4xFLAG at the C terminus) (Cryptococcus neoformans) (UniProt J9W0H7)
Assay: co-IP; whole-cell lysates of C. neoformans strains carrying both tagged alleles; anti-FLAG antibody overnight at 4°C, protein G Sepharose 6 h at 4°C, washed thrice with lysis buffer (50 mM Tris-Cl pH 7.5, 1% sodium deoxycholate, 1% Triton X-100) containing 50 mM NaCl; anti-HA western blot

binding: binds
Substance: Kae1-6xHA (C. neoformans Kae1 tagged with 6xHA at the C terminus) (from UniProt J9VIU8)

Results are given in words; binding and its absence hold for the method and conditions named. Binding seen in cells or lysates may run through a third protein. Binding calls can cover weak binding; strength is not graded here.
